According to PubChem BioAssay AID1347426 (Functional Genomics Laboratory (NCATS/FGL), 2020):
Among all 31,000 sequences or so, about 1,400 (4.5%) were called active.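 Rule for the calls: active = median seed-adjusted z-score above 1 or below -1; inactive = the rest.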 The list shows a part of the results.

Test: Novel Modifiers of Survival Motor Neuron (SMN) Protein: Gene Identification via Genome-wide siRNA Screen;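 note: luminescence tracks full-length SMN protein made from the SMN2 reporter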
Settings: HEK293T SMN2-luciferase reporter, siRNA knockdown, 72 h; actives lie on both sides
Summary of the method: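 siRNA screen, 10418 genes ×3 siRNAs; 1 pmol/well, lipid reverse transfection into HEK293T SMN2-luc reporter line. 72 h, 37 °C, 5% CO2; ONE-Glo readout. Data: neg-ctrl normalized, log10, MAD; hit = MAD >1.0 or < -1.0.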
In the case of CCAUGAACUUUGAUGUGAUTT against PABPC4, the median seed-adjusted z-score is reported as inactive: -0.42. With GGAAGUCUGCAAUUGAACATT against RAPGEF5 the median seed-adjusted z-score was inactive: 0.529. In the case of AGAUCAACGUGAUUGAGGATT against CENTB1, the median seed-adjusted z-score is reported as inactive: -0.239. With CGACCACGUUGAAACGCAATT against SCN2A the median seed-adjusted z-score was inactive: 0. For AAACAACUCGAUUUCGAAATT against PCDHB13, the median seed-adjusted z-score was inactive: -0.293. For GCAGAUUACGCAUUUACAATT against GTPBP10, the median seed-adjusted z-score was inactive: 0. In the case of CCAGUGUCUUUUAACUUAATT against GARS, the median seed-adjusted z-score is reported as inactive: 0.138. In the case of CGAUGGGUGAGACUGGAUATT against CENTD2, the median seed-adjusted z-score is reported as inactive: -0.305. With GGAUUAGCCUCAACGAUGUTT against PARP4 the median seed-adjusted z-score was inactive: -0.226. In the case of GGUGGAACUUUUAAUCAAATT against GABPB2, the median seed-adjusted z-score is reported as inactive: 0.441. For GGCACCAACUUCACAUUCATT against SUSD2, the median seed-adjusted z-score was inactive: 0.422. In the case of GAAAGAUGCAAAAGACAAATT against SFPQ, the median seed-adjusted z-score is reported as active: -1.15. In the case of CAUGUUCUUUGAGAAGCGATT against PLSCR3, the median seed-adjusted z-score is reported as inactive: 0. With CGAAGUGAGUGAUAACAGUTT against RNF157 the median seed-adjusted z-score was inactive: 0.0197. With GGUGUCCAAUAAGACCGAATT against SERPINC1 the median seed-adjusted z-score was inactive: -0.0822. In the case of GGGUGGAGGUUAUCCUGAATT against AXL, the median seed-adjusted z-score is reported as inactive: -0.603. For CCUUUACUGUUUAUGGACATT against ZNF30, the median seed-adjusted z-score was inactive: -0.0208. With GCAUUUUGCUGCGAAGUAUTT against PIK3AP1 the median seed-adjusted z-score was inactive: 0.0678. For CAAACCUACCUAAUCAUAUTT against GDPD2, the median seed-adjusted z-score was inactive: -0.0868. For GAACCGGAAGAUCAUAUUATT against SPAG6, the median seed-adjusted z-score was inactive: -0.439. For GGAACAGACAGUGACCAAUTT against ZNF335, the median seed-adjusted z-score was inactive: -0.305. With GUGCUCUUCUGAGAUCUAATT against SLC25A40 the median seed-adjusted z-score was inactive: 0.414. In the case of GAAUGAAUCAAAUCUUUUUTT against EBPL, the median seed-adjusted z-score is reported as inactive: -0.113. For GACCAGACAUUCACACGAATT against ZNF483, the median seed-adjusted z-score was inactive: 0. With GAACGUGAAGAUCAACUUUTT against SCN8A the median seed-adjusted z-score was inactive: 0. In the case of GGCUAUGACUGGAGCACGATT against PVRL2, the median seed-adjusted z-score is reported as inactive: -0.367. For CUACCGCAAAUACUUCUAUTT against SIPA1, the median seed-adjusted z-score was inactive: -0.0872. For CAACAAGUUCUAUACUAAATT against MADD, the median seed-adjusted z-score was inactive: 0.363. In the case of GCAUUAUGAUUGCAUGGAATT against OSGEPL1, the median seed-adjusted z-score is reported as inactive: -0.708. For CAGCAGAGCUUCUUAGCAATT against INPP1, the median seed-adjusted z-score was inactive: -0.047. For GUAUCCAGGUUGCAAAUAUTT against BIRC8, the median seed-adjusted z-score was inactive: 0.0184. In the case of GGAAAGUCUUUACCCUCAATT against ZNF41, the median seed-adjusted z-score is reported as inactive: 0.342. For GAACUGCAAAGACCUGUUUTT against SSU72, the median seed-adjusted z-score was active: -1.64. For GGGAUCCUCCUUAUCCUAATT against FXYD6, the median seed-adjusted z-score was inactive: -0.214. With CCAUCGAAAUUGUGAAGCUTT against ATP10D the median seed-adjusted z-score was inactive: -0.35. In the case of CAGGUGAUGUGAUAUCAUATT against VGLL2, the median seed-adjusted z-score is reported as inactive: -0.0234. For GGACUUGAACAUCAGCUAUTT against FAM62A, the median seed-adjusted z-score was inactive: -0.34. With GAUGAUUCCCUGUACAUCATT against FSTL4 the median seed-adjusted z-score was inactive: 0.429. With GAGCUGAGCUUCAACGUGATT against MYO1F the median seed-adjusted z-score was inactive: 0.103. For GGCUUAUAUAAAGAUCUAUTT against SPG3A, the median seed-adjusted z-score was inactive: 0.203. For CGCCCUGCAUGUAUACAAUTT against PDPR, the median seed-adjusted z-score was inactive: -0.0653. For GGAACAACAGAGACAAGAATT against ADSS, the median seed-adjusted z-score was inactive: -0.272. In the case of CGAGAUGAUUUGGUCCAGATT against TFCP2L1, the median seed-adjusted z-score is reported as inactive: -0.246. For GCAUCGAUUUUUCACCUGUTT against HTR4, the median seed-adjusted z-score was inactive: 0.444. With GAAUGAGUAUGUUCAUGGATT against VRK3 the median seed-adjusted z-score was inactive: -0.526. With GAUUGCAUAUUACAAACGATT against GIN1 the median seed-adjusted z-score was inactive: -0.0585. With GGGUCAUUCUGAUCACCGATT against KLK3 the median seed-adjusted z-score was inactive: 0.0191. For GGUUCACGGUUCAAAAUCATT against SLC25A24, the median seed-adjusted z-score was inactive: -0.0384. In the case of GCUAUUCCAUCUACCGAUATT against IL20RA, the median seed-adjusted z-score is reported as inactive: -0.646. For CCGUAAUAGGUGUCGGAGATT against GPR116, the median seed-adjusted z-score was inactive: 0. With GCUCAUGACUUACUCCCAUTT against GNB1 the median seed-adjusted z-score was inactive: -0.166. For CCAUAAUUUUGUUAUGGUATT against TXNDC12, the median seed-adjusted z-score was inactive: -0.154. For GGACUUUGACAAGAACAGUTT against CYP1A2, the median seed-adjusted z-score was inactive: 0. With GUGAAGCAUUUGUAUAUCATT against MICAL2 the median seed-adjusted z-score was inactive: -0.0224. For CGGACACUUUGUUAUUGGATT against RABGGTB, the median seed-adjusted z-score was inactive: -0.856. With GCCUCUACAUGAAAUCUGUTT against SCARB1 the median seed-adjusted z-score was inactive: 0.0715. With GCAGCUUGUUAAAUCAACATT against AFP the median seed-adjusted z-score was inactive: -0.144. In the case of GCAUUACUAGGGUUGAAGATT against PNPLA8, the median seed-adjusted z-score is reported as inactive: 0.0576. For GGUCUUCAGUGAACAGUUUTT against ZNF562, the median seed-adjusted z-score was inactive: -0.0954. In the case of GGUUGUUGUAUACUUGCAATT against LIPJ, the median seed-adjusted z-score is reported as inactive: 0.295. In the case of CUCUCAGCCUUCUACCUGATT against MAN1C1, the median seed-adjusted z-score is reported as inactive: -0.548. In the case of GAACAGGCGUGCCAAGUCUTT against MIXL1, the median seed-adjusted z-score is reported as inactive: -0.204. In the case of CCCUAUACCCAGGUUUUGATT against ACHE, the median seed-adjusted z-score is reported as inactive: 0. With CGAAUUAACGGGUCAGAUUTT against CLCN1 the median seed-adjusted z-score was inactive: 0.314. In the case of GGUCACCUGUUACAAGUGUTT against CPSF4, the median seed-adjusted z-score is reported as inactive: 0.298. For GAAAAUGUUCGGUACUUGATT against TPTE, the median seed-adjusted z-score was inactive: 0.213. With GUUGAUUACCUGUACCGAATT against INPP5B the median seed-adjusted z-score was inactive: 0. In the case of CCCAAGGUGUUAUAGAUGATT against STARD4, the median seed-adjusted z-score is reported as inactive: 0.173. For CGAUUCACCAGGAACGACATT against ZBTB7B, the median seed-adjusted z-score was inactive: -0.242. With GGCCGAUUAACUACCCUAATT against STAT2 the median seed-adjusted z-score was inactive: 0. With CCUUUGAUGUCACAGCGAUTT against SLC9A6 the median seed-adjusted z-score was inactive: -0.0831. In the case of CAGCAUAAGCAGUACUAUATT against AEBP2, the median seed-adjusted z-score is reported as inactive: -0.212. For GGUUAUGUAGUAACGAGUUTT against ALS2, the median seed-adjusted z-score was inactive: 0. For GAAUGUGCUAUGAAGCUUUTT against SPRR1B, the median seed-adjusted z-score was inactive: -0.721. In the case of CAACUGCAAGAGGACUGUATT against SLC10A4, the median seed-adjusted z-score is reported as inactive: 0.069. In the case of GCAACUAACUCUAAUAACATT against B3GALT2, the median seed-adjusted z-score is reported as inactive: 0.031. In the case of GCUACCAUGAGGUCCACUATT against NSUN5, the median seed-adjusted z-score is reported as inactive: 0.118. In the case of GAUCGAUAUCUUUACAAGATT against SLK, the median seed-adjusted z-score is reported as inactive: 0.0479. In the case of CCUGCCCAGAGAUACGAAATT against SMURF1, the median seed-adjusted z-score is reported as active: -1.4. With CACACGCACUUUAAGAACATT against KCNC1 the median seed-adjusted z-score was inactive: 0.73. In the case of CCACGGAGCUGAUGAACUUTT against GABRD, the median seed-adjusted z-score is reported as inactive: 0.428. In the case of GCACAGGCCAGGUCAUCAATT against FKBP2, the median seed-adjusted z-score is reported as inactive: -0.0466. For CCGCAUCUCCCUAGACAAATT against SERTAD3, the median seed-adjusted z-score was inactive: -0.216. In the case of GAGAUUACCUAAGCAAAUUTT against TTC1, the median seed-adjusted z-score is reported as inactive: 0.3. In the case of GGAUAUUCAGAAAAGUGUUTT against INSL6, the median seed-adjusted z-score is reported as inactive: 0.777. For GAUUUGGACAAGUUAAGAATT against GSTA5, the median seed-adjusted z-score was inactive: 0.523. For UGUCAGGUUAUAUUCCUUUTT against SFXN5, the median seed-adjusted z-score was inactive: 0. With GAGCACAUAUGUGACUCCATT against CYP2A7 the median seed-adjusted z-score was inactive: 0.342. For AGAUCACAGUGCUCAAACATT against SYMPK, the median seed-adjusted z-score was inactive: 0.946. For AGAAGGAACAUGAGAAGGATT against CBX2, the median seed-adjusted z-score was inactive: -0.215. In the case of CACUCUUGGGAGAAACGUATT against OSBPL2, the median seed-adjusted z-score is reported as inactive: 0. For CAACAAUUGUCAUCGGAGUTT against RNASE3, the median seed-adjusted z-score was inactive: 0.588. In the case of UGACGGCAACUGUUUCUAUTT against OTUB1, the median seed-adjusted z-score is reported as inactive: 0.598. With GGACCCAAAUAAACCGGAATT against CACNA1S the median seed-adjusted z-score was inactive: 0.842. With CAGAGGAGCUACAAAAGUATT against MX1 the median seed-adjusted z-score was active: -1.49. In the case of CCCUACAUGUGAACAACGATT against PRPF8, the median seed-adjusted z-score is reported as active: -1.54. In the case of GUCUCAUCCUUACUACCAATT against BPGM, the median seed-adjusted z-score is reported as inactive: 0.408. For ACAUCUUCAUUAUAGAAUATT against REXO2, the median seed-adjusted z-score was inactive: -0.0419. For GGACGAUGAUGUAAUUGUATT against GLT8D2, the median seed-adjusted z-score was inactive: -0.619. For CCCAUAUUCGGAUCCAGAATT against PTPN6, the median seed-adjusted z-score was inactive: -0.515. For GCUGGUUACUUAUCACCAATT against TPH1, the median seed-adjusted z-score was inactive: -0.055. With GGUCAUUUACAGCACCGAUTT against MYOC the median seed-adjusted z-score was inactive: 0.764. For CGAGAGGUGUAUCAAUAUATT against LIN7A, the median seed-adjusted z-score was active: -1.39. For GCAAUAGGAUUGUUUUCGATT against ABCC2, the median seed-adjusted z-score was inactive: -0.0464. For CGAGAUCUACUUUGGAAAATT against CAPZB, the median seed-adjusted z-score was inactive: -0.106. In the case of CCUGGACUUUAUCCGCUCATT against SPIRE2, the median seed-adjusted z-score is reported as inactive: 0.0604. In the case of GCCGAGUUCUUCUACAACUTT against HRH3, the median seed-adjusted z-score is reported as inactive: 0.276. In the case of GGGACUCAGUAUUAGCCUUTT against ECH1, the median seed-adjusted z-score is reported as inactive: 0.0348.
